The list shows a part of the results.
How the values were obtained:
Assay in all cases: log2 fold change, soluble protein after heating vs DMSO (PISA); higher = thermal stabilisation; K562 cells, 10 uM, 30 min; active = over 0.2 and 3.5 SD of the protein, either way, in both replicates (recomputed)
erlotinib = compound: C#Cc1cccc(Nc2ncnc3cc(OCCOC)c(OCCOC)cc23)c1 [erlotinib]
Outline: (§1)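 Quantification of soluble protein used TMTpro 16plex LC-MS/MS, with channel sums equalised. Samples were the supernatant after 21,000xg for 90 min of pooled aliquots from K562 cells (2×10^6 cells/mL) treated with 10 μM compound for 30 min, heated for 3 min over 48°C-58°C, and extracted in PBS with 0.5% NP-40 at 4°C. Values, from duplicates, describe thermal stability against control samples on a log2 fold-change scale.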

The chains behind the UniProt entries cited, without tags or fusion partners. Where a name states a change or a piece, a line headed by the entry shows the natural chain unless it says otherwise.
UniProt P09622, whole entry, looked up: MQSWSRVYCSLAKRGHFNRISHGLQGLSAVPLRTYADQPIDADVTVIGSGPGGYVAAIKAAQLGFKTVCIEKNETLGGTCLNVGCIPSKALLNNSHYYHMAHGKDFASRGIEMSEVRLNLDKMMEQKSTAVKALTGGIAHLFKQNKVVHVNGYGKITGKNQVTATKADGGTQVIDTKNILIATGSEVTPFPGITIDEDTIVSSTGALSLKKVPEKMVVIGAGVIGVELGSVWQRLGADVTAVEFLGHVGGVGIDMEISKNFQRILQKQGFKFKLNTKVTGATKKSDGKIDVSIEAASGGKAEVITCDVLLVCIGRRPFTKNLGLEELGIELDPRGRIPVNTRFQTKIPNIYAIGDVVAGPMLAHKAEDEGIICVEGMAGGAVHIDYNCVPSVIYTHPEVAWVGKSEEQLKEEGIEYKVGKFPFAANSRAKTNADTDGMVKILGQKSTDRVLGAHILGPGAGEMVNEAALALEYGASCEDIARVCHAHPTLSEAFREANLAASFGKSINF
UniProt Q9H2U1: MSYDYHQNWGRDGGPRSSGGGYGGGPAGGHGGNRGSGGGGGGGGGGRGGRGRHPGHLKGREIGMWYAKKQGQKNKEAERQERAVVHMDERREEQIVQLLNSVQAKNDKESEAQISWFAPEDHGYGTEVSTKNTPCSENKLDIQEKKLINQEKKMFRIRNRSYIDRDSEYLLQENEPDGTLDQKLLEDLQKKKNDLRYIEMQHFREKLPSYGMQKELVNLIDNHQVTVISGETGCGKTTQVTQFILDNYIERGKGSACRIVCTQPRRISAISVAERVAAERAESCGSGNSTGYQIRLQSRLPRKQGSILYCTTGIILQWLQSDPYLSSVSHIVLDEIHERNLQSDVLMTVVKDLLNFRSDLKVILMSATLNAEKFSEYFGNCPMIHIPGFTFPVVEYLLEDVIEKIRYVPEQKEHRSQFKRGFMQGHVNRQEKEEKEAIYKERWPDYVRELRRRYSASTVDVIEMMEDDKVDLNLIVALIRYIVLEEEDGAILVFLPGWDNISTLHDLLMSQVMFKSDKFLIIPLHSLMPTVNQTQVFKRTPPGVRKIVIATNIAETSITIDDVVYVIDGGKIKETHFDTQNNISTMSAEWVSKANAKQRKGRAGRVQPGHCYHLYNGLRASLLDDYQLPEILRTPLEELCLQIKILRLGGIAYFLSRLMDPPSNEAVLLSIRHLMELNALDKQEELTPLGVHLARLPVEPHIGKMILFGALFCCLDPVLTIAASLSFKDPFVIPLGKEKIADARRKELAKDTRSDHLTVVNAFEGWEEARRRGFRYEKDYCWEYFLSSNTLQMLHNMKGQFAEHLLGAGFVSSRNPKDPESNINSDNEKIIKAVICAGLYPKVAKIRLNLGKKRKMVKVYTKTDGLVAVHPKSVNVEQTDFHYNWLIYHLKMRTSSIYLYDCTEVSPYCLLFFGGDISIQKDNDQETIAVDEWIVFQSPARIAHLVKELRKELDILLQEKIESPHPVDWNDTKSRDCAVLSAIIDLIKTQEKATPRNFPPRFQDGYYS
UniProt Q96FC9: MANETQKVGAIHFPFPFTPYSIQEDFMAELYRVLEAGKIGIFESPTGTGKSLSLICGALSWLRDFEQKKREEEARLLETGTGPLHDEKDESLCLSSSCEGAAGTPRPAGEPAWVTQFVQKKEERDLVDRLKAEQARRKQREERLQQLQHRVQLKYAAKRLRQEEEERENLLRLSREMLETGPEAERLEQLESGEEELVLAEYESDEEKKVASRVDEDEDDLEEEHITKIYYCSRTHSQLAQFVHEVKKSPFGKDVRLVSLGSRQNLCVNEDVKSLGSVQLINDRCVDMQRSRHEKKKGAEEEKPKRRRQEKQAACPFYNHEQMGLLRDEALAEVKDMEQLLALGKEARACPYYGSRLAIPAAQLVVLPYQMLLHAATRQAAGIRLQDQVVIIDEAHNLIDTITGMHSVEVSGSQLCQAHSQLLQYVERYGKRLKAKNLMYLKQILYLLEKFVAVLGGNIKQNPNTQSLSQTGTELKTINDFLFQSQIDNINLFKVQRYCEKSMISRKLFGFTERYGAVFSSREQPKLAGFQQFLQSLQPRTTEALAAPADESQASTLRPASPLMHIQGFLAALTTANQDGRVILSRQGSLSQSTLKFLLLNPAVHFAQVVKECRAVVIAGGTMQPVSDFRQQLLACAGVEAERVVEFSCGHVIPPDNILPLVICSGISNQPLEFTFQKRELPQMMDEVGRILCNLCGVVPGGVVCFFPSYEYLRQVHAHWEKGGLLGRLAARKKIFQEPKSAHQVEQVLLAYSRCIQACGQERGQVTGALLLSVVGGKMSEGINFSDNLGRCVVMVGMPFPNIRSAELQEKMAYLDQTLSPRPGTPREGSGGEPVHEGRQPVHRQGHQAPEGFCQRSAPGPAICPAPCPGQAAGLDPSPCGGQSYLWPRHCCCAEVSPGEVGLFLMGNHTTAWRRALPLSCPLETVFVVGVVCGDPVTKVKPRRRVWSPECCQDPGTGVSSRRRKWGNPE
UniProt Q6UWP2: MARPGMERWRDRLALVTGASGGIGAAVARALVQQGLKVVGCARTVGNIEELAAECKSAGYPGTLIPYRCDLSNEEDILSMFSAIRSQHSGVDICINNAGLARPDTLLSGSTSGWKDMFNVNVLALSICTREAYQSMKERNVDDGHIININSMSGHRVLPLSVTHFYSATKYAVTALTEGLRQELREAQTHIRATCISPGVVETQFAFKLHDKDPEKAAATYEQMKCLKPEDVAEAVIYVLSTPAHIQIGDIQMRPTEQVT
UniProt Q9UBM7: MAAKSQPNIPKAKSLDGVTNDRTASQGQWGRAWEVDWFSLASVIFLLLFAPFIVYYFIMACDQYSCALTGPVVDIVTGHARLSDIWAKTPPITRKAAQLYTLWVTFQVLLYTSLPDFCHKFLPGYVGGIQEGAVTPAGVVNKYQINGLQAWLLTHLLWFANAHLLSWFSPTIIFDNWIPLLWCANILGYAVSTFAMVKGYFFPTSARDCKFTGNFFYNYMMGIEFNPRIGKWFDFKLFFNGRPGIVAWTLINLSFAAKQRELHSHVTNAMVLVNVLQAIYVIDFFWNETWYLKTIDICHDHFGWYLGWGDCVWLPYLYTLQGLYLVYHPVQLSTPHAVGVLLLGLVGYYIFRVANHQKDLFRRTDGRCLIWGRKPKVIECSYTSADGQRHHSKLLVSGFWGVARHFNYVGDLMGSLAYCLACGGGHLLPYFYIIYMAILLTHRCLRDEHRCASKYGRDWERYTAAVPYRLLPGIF
UniProt Q9NR30: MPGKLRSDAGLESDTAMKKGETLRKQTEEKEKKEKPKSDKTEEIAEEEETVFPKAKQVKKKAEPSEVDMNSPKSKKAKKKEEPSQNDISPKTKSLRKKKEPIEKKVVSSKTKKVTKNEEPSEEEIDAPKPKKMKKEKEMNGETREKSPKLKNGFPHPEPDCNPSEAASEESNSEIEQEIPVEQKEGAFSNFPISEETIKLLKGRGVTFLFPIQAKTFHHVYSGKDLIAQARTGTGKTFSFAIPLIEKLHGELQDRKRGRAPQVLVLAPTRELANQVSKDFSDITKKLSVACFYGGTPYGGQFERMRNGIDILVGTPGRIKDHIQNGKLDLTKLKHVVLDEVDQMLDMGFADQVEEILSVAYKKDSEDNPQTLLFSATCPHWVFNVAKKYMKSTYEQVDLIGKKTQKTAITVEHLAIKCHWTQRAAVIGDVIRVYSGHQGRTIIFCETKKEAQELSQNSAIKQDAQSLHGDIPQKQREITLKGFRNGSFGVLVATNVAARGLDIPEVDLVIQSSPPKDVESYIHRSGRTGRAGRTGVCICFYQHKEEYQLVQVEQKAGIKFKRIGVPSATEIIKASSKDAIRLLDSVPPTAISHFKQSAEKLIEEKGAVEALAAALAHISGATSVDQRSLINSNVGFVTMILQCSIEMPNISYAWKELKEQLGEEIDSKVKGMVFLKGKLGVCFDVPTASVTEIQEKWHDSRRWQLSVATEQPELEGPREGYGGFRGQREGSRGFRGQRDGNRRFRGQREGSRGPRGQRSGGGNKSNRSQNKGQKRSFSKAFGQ
UniProt O75064: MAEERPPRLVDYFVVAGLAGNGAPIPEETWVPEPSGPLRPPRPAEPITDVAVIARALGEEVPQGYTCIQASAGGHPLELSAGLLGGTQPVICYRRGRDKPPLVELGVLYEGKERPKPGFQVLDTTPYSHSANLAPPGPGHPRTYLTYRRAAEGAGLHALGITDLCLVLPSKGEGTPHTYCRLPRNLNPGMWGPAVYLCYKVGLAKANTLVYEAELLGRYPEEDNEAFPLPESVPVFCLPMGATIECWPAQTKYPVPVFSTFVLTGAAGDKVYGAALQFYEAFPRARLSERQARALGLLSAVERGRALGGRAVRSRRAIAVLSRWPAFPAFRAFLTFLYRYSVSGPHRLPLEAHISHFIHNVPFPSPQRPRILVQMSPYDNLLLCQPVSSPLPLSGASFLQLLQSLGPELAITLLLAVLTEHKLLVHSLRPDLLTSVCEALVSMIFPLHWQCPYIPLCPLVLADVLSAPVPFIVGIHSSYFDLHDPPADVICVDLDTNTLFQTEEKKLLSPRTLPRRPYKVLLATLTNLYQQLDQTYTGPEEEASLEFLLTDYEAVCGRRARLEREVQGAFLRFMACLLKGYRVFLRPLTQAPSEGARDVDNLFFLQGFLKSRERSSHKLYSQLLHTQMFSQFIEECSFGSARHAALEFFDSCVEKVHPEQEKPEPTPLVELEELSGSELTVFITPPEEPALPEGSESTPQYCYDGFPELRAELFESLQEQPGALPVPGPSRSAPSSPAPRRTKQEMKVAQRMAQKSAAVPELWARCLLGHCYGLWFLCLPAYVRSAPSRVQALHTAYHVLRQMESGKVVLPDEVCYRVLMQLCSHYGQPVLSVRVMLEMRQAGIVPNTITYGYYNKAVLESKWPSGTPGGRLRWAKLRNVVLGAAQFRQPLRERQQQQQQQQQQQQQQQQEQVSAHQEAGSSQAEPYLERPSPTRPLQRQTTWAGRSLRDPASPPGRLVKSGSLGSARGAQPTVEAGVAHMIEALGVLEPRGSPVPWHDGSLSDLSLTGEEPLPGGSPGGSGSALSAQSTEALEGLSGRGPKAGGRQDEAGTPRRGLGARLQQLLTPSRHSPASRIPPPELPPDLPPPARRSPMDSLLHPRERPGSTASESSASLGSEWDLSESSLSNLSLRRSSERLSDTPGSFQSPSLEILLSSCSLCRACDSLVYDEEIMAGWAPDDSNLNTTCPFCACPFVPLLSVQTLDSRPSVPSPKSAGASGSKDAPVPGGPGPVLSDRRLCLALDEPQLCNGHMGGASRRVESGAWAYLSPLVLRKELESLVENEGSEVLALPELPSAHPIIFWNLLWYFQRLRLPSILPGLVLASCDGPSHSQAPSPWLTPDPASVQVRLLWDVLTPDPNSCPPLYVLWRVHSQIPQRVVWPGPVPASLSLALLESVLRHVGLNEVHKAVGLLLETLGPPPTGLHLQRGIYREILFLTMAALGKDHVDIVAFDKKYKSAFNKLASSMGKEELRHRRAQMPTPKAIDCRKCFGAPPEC
UniProt Q6ZN54: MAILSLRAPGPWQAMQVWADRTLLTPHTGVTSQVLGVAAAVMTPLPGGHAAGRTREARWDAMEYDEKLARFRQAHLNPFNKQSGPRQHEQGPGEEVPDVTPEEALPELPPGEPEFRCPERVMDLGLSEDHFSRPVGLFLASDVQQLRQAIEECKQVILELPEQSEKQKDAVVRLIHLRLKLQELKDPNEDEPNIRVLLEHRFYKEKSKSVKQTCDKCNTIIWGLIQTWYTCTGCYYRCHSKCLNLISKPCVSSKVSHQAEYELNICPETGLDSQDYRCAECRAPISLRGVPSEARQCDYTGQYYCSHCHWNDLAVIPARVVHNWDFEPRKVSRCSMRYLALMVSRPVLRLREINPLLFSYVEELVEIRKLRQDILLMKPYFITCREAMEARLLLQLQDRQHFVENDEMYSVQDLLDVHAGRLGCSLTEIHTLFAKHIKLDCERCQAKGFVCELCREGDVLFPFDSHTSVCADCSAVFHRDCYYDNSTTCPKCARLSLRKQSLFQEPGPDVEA
UniProt Q6ICB0: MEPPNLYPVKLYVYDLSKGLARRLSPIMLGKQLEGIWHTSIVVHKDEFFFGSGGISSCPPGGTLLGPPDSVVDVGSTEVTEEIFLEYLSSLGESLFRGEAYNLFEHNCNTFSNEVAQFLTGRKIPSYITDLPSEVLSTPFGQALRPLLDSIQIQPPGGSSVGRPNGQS
UniProt Q6UX07: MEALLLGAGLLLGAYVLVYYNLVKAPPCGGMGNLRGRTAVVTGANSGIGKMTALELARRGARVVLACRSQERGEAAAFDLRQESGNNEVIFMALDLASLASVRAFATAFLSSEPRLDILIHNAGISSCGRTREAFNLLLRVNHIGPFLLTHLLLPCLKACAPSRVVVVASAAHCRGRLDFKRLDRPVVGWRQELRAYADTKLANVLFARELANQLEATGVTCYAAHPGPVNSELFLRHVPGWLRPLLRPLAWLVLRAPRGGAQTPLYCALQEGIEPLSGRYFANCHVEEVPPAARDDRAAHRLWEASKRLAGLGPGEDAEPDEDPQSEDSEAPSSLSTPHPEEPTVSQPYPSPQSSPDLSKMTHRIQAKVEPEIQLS

[1] = compound: C/C(=N\NC(=O)C1=CC(=CC=C1)S(=O)(=O)N2CCOCC2)/C3=C(C=CC(=C3)Cl)O
Outline: as §1

[2] = compound: C1=CC(=C(C=C1Cl)C2=NC3=NC=CN=C3C(=N2)NC4=CC=NC=C4)F
Outline: as §1

[3] = compound: C1=CC(=CC=C1C2=NC3=C(N2)C=C(C=C3)C(=O)N)OC4=CC=C(C=C4)Cl
Outline: as §1

[4] = compound: C1=CC2=C(C=CC(=C2)/C=C\3/C(=O)NC(=NCC4=CC=CS4)S3)N=C1
Outline: as §1

[5] = compound: C1=CC2=NC=CN=C2C=C1/C=C/3\C(=O)NC(=O)S3
Outline: as §1

[6] = compound: C1=CC=C(C=C1)C2=NC(=C(N2)C3=CC=NC=C3)C4=CC(=C(C=C4)Cl)O
Outline: as §1

[7] = compound: C1=CC=C2C(=C1)C3=NNC4=CC=CC(=C43)C2=O
Outline: as §1

[8] = compound: C1CCN(C1)C(=O)NC2=CC=CC(=C2)NC3=NC=C(C(=N3)NCCC4=CN=CN4)Br
Outline: as §1

[9] = compound: C1CN(CCC1(CC2=CC=C(C=C2)Cl)N)C3=NC=NC4=C3C=CN4
Outline: as §1

Measured: log2 fold change

DHX29 (UniProt Q7Z478)
inactive: erlotinib 0.002 | [1] -0.029 | [2] -0.296 | [3] 0.054 | [4] -0.066 | [5] 0.018 | [6] -0.095 | [7] -0.016 | [8] 0.015 | [9] -0.096

DLD (UniProt P09622)
inactive: erlotinib 0.001 | [1] -0.018 | [2] 0.044 | [3] -0.083 | [4] -0.007 | [5] -0.018 | [6] 0.032 | [7] -0.018 | [8] 0.031 | [9] 0.054

DDX39B isoform 2 (UniProt Q13838)
inactive: erlotinib -0.078 | [1] -0.008 | [2] -0.065 | [3] 0.004 | [4] 0.006 | [5] 0.014 | [6] -0.04 | [7] -0.037 | [8] 0.01 | [9] 0.017

DHX36 (UniProt Q9H2U1)
inactive: erlotinib -0.089 | [1] 0.013 | [2] -0.08 | [3] 0.031 | [4] -0.072 | [5] 0.011 | [6] 0.044 | [7] -0.023 | [8] 0.047 | [9] -0.066

DDX11 (UniProt Q96FC9)
inactive: erlotinib 0.019 | [1] -0.041 | [2] 0.087 | [3] 0.005 | [4] 0.029 | [5] 0.034 | [6] 0.215 | [7] -0.027 | [8] 0.032 | [9] 0.072

DHRS11 (UniProt Q6UWP2)
inactive: erlotinib 0.095 | [1] -0.002 | [2] 0.067 | [3] -0.019 | [4] 0.059 | [5] -0.009 | [6] 0.042 | [7] 0.038 | [8] -0.037 | [9] 0.098

DDX19A (UniProt Q9NUU7)
inactive: erlotinib 0.004 | [1] 0.053 | [2] 0.011 | [3] -0.02 | [4] -0.116 | [5] 0.021 | [6] 0.078 | [7] 0.058 | [8] -0.027 | [9] 0.105

DHCR7 (UniProt Q9UBM7)
inactive: erlotinib 0.113 | [1] 0.041 | [2] -0.095 | [3] -0.056 | [4] 0.071 | [5] 0.022 | [6] 0.038 | [7] -0.003 | [8] -0.037
active: [9] 0.623

DDX21 (UniProt Q9NR30)
inactive: erlotinib -0.013 | [1] -0.049 | [2] -0.282 | [3] 0.065 | [4] -0.038 | [5] 0.139 | [6] 0.043 | [7] -0.039 | [8] -0.008 | [9] -0.223

Reprinted from the listing (two entries):
DDX11 (UniProt Q96FC9)
inactive: erlotinib 0.019 | [1] -0.041 | [2] 0.087 | [3] 0.005 | [4] 0.029 | [5] 0.034 | [6] 0.215 | [7] -0.027 | [8] 0.032 | [9] 0.072

DHRS11 (UniProt Q6UWP2)
inactive: erlotinib 0.095 | [1] -0.002 | [2] 0.067 | [3] -0.019 | [4] 0.059 | [5] -0.009 | [6] 0.042 | [7] 0.038 | [8] -0.037 | [9] 0.098

Later entries:

DIP2B (UniProt Q9P265)
inactive: erlotinib -0.013 | [1] 0.052 | [2] 0.032 | [3] 0.006 | [4] 0.005 | [5] 0 | [6] -0.006 | [7] 0.004 | [8] -0.024 | [9] 0.052

DLG2 isoform 2 (UniProt Q15700)
inactive: erlotinib -0.026 | [1] 0.094 | [2] -0.031 | [3] 0.008 | [4] -0.032 | [5] 0.116 | [6] 0.005 | [7] -0.079 | [8] -0.021 | [9] -0.001

DERA (UniProt Q9Y315)
inactive: erlotinib -0.04 | [1] -0.038 | [2] 0.042 | [3] 0.048 | [4] 0.01 | [5] 0.052 | [6] -0.019 | [7] 0.004 | [8] 0.004 | [9] 0.053

DMAC2L (UniProt Q99766)
inactive: erlotinib -0.01 | [1] 0.022 | [2] 0.038 | [3] -0.004 | [4] 0.037 | [5] 0.021 | [6] 0.044 | [7] 0.008 | [8] -0.051 | [9] 0.04

DENND4B (UniProt O75064)
inactive: erlotinib -0.029 | [1] 0.014 | [2] -0.033 | [3] -0.004 | [4] 0.094 | [5] -0.198 | [6] -0.023 | [7] 0.02 | [8] -0.047 | [9] 0.031

DDX6 (UniProt P26196)
inactive: erlotinib -0.018 | [1] 0.014 | [2] -0.031 | [3] 0.008 | [4] -0.01 | [5] -0.029 | [6] 0.051 | [7] -0.035 | [8] 0.016 | [9] -0.069

DDX56 (UniProt Q9NY93)
inactive: erlotinib -0.024 | [1] -0.056 | [2] -0.172 | [3] 0.068 | [4] -0.109 | [5] 0.007 | [6] -0.019 | [7] 0.118 | [8] 0.13 | [9] 0.011

DHRS4L1 (UniProt P0CG22)
inactive: erlotinib 0.022 | [1] 0.01 | [2] 0.047 | [3] -0.029 | [4] 0.045 | [5] 0.032 | [6] -0.038 | [7] -0.082 | [8] 0.039 | [9] 0.038

DEF8 (UniProt Q6ZN54)
inactive: erlotinib 0.037 | [1] 0.088 | [3] 0.04 | [4] 0.227 | [5] 0.088 | [7] -0.084

DIPK2A (UniProt Q8NDZ4)
inactive: erlotinib -0.052 | [1] 0.148 | [3] -0.017 | [4] -0.026 | [5] 0.064 | [6] -0.024 | [7] -0.027 | [8] -0.04 | [9] -0.166

DESI1 (UniProt Q6ICB0)
inactive: erlotinib -0.041 | [1] -0.012 | [3] 0.017 | [4] 0.147 | [5] 0.099 | [7] 0.056 | [8] -0.22 | [9] 0.023

DNAH11 (UniProt Q96DT5)
inactive: erlotinib -0.252 | [1] -0.237 | [2] 0.001 | [3] 0.085 | [4] 0.012 | [5] -0.023 | [6] -0.28 | [7] -0.001 | [8] 0.125 | [9] 0.119

DHRS7 (UniProt Q9Y394)
inactive: erlotinib 0.005 | [1] 0.044 | [2] 0.072 | [3] 0.058 | [4] -0.015 | [5] 0.023 | [6] 0.012 | [7] -0.024 | [8] -0.001 | [9] 0.038

DDOST (UniProt P39656)
inactive: erlotinib -0.033 | [1] 0.003 | [2] 0.004 | [3] -0.014 | [4] -0.085 | [5] 0.014 | [7] 0.012 | [8] -0.002 | [9] -0.003
active: [6] 0.253

DIDO1 (UniProt Q9BTC0)
inactive: erlotinib -0.019 | [1] -0.126 | [2] 0.011 | [3] 0.004 | [4] -0.033 | [6] 0.087 | [7] -0.031 | [8] -0.191 | [9] -0.018

DHRSX (UniProt Q8N5I4)
inactive: erlotinib 0.063 | [1] 0.211 | [3] 0.045 | [4] 0.141 | [5] 0.11 | [7] -0.228

DHRS13 (UniProt Q6UX07)
inactive: erlotinib 0.014 | [1] 0.043 | [3] -0.006 | [4] 0.037 | [6] 0.073 | [7] 0.047 | [8] -0.009 | [9] 0.065

DFFA isoform 2 (UniProt O00273)
inactive: erlotinib 0.209 | [2] -0.033 | [3] 0.004 | [5] -0.03

DDX39B (UniProt H0Y400)
inactive: erlotinib -0.198 | [2] -0.11 | [3] -0.031

DIP2A (UniProt Q14689)
inactive: erlotinib -0.002 | [1] 0.07 | [2] 0.055 | [3] 0.103 | [4] -0.145 | [5] 0.076 | [6] 0.037 | [7] 0.043 | [8] 0.03 | [9] 0.053

Source: the supplement of paper PMC10849652
